Experimental data from article PMC10840202.
Where two headings read alike, the source gives them in different places. Results are given in words; binding and its absence hold for the method and conditions named. In cells and extracts the contact can be indirect. These calls come from enrichment with a bait or labelling near it, and not all partners need be listed.

Sequences of proteins named here, by UniProt entry; tags and fusion partners are left off.
UniProt P10275: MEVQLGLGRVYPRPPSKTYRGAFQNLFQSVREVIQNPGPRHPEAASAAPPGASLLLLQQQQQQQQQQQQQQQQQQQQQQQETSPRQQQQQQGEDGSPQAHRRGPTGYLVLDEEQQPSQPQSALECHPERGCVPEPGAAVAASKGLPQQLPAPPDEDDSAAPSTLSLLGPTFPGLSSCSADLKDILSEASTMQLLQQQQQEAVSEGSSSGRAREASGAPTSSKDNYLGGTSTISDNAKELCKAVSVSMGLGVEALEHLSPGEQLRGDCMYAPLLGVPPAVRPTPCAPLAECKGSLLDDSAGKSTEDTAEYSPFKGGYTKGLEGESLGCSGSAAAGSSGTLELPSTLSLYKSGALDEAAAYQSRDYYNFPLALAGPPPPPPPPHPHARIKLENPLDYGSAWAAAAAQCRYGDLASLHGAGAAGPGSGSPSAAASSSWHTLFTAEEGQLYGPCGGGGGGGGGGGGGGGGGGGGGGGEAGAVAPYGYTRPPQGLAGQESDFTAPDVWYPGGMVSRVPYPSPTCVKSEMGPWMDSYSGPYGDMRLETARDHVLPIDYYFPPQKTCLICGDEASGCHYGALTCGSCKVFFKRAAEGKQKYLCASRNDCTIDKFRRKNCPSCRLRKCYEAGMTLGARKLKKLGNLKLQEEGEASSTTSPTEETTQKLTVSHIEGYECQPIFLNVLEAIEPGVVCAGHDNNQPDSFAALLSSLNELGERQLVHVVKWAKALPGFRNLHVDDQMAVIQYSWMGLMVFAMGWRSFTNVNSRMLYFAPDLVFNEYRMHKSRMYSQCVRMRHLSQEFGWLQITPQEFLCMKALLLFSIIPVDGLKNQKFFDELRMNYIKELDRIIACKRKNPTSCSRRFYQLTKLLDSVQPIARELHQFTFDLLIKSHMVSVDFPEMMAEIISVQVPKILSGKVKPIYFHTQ
UniProt P23771: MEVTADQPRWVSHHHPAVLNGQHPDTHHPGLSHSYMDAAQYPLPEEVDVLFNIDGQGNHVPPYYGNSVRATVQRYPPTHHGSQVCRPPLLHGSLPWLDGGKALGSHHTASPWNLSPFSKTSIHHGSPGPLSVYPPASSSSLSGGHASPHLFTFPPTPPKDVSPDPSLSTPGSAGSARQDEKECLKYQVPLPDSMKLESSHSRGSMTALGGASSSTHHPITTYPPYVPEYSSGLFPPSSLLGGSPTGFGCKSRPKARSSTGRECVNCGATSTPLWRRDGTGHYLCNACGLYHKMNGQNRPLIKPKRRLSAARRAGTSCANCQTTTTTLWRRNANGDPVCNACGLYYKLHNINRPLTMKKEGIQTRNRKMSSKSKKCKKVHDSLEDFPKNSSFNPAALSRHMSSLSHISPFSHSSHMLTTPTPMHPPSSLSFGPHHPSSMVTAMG

Experiments:
[1] = target: androgen receptor (human (endogenous in ZR-75-1, T-47D, MDA-MB-453, MFM-223 cells and human breast tissue)) (UniProt P10275); test: affinity purification with mass spectrometry; RIME: cells in growth medium cross-linked with 1% formaldehyde for 7 min, chromatin isolated and sonicated, immunoprecipitated with AR antibody on magnetic beads, on-bead digestion, Nano-LC-MS/MS; hits found in 3 of 3 replicates and not in IgG controls
[2] = target: androgen receptor (human (endogenous in ZR-75-1, T-47D, MDA-MB-453, MFM-223 cells and human breast tissue)) (UniProt P10275); test: as above; remark: listed apart in the source

| binding [1] | binding [2] | Molecule |
| --- | --- | --- |
| binds |  | GATA3 (from UniProt P23771 1-443) |
|  | binds | FOXA1 (protein, UniProt P55317 1-472) MLGTVKMEGHETSDWNSYYADTQEAYSSVPVSNMNSGLGSMNSMNTYMTMNTMTTSGNMTPASFNMSYANPGLGAGLSPGAVAGMPGGSAGAMNSMTAAGVTAMGTALSPSGMGAMGAQQAASMNGLGPYAAAMNPCMSPMAYAPSNLGRSRAGGGGDAKTFKRSYPHAKPPYSYISLITMAIQQAPSKMLTLSEIYQWIMDLFPYYRQNQQRWQNSIRHSLSFNDCFVKVARSPDKPGKGSYWTLHPDSGNMFENGCYLRRQKRFKCEKQPGAGGGGGSGSGGSGAKGGPESRKDPSGASNPSADSPLHRGVHGKTGQLEGAPAPGPAASPQTLDHSGATATGGASELKTPASSTAPPISSGPGALASVPASHPAHGLAPHESQLHLKGDPHYSFNHPFSINNLMSSSEQQHKLDFKAYEQALQYSPYGSTLPASLPLGSASVTTRSPIEPSALEPAYYQGVYSRPVLNTS |
